# PubChem BioAssay AID686937, Drosophila RNAi Screening Center – 2013
# Test: 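Genes in the fly needed for secretion of protein constitutively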 (primary screen)
# System: Drosophila S2 cells expressing secreted horseradish peroxidase
# Reagent: long dsRNA against Drosophila genes
# Time to read-out: about 5.5 days (5 days dsRNA, then 12 h reporter induction)
# Treatment: reporter expression induced after 5 days of dsRNA, read 12 h later; inducer not stated
# Measured: 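Chemiluminescent measurement of peroxidase in the medium 12 h after reporter induction, following 5 days of dsRNA, given as a z-score per plate; higher means more secretion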
# Scale: z-score: higher = more reporter secreted into medium
# The screen tested about 23,000 reagents; below is an unselected part of those that have a named target and a result. 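Reduced-secretion tags in replicate 1 do not always agree with the z-scores; no criterion for assigning the tags was given.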 Not all columns of the deposit are shown. The record does not give: the amount of reagent.
target gene,dsRNA,"z-score, replicate 1","z-score, replicate 2","z-score, replicate 3","z-score, replicate 4"
GstE2 (GeneID 37107),DRSC06672,0.44,0.09,,
Lhr (GeneID 36957),DRSC06759,0.48,0.38,,
Usp5 (GeneID 38375),DRSC08244,-0.21,0.31,,
St4 (GeneID 36548),DRSC07008,0.41,0.38,,
Kyat (GeneID 41433),DRSC16147,0.13,-0.06,,
EMC1 (GeneID 40933),DRSC15455,0.31,0.1,,
CG15578 (GeneID 50379),DRSC18066,0.25,-0.12,,
CG12935 (GeneID 36134),DRSC06248,-0.07,0.16,,
RpS2 (GeneID 34309),DRSC03614,-4.06,-3.1,,
CG14020 (GeneID 33771),DRSC02350,0.3,0.11,,
rumpel (GeneID 31674),DRSC18436,0.21,0.36,,
Uch (GeneID 33397),DRSC00797,0.39,-0.28,,
CG8565 (GeneID 32538),DRSC20112,0.51,0.26,,
Mco4 (GeneID 326221),DRSC20061,0.05,0.14,,
Tom70 (GeneID 34618),DRSC02990,0,0.25,0.04,0.38
Top3alpha (GeneID 35236),DRSC03460,0.17,0.17,,
vir (GeneID 47869),DRSC04377,0.5,0.11,,
CG13157 (GeneID 36355),DRSC06282,0.15,0.32,,
CG34436 (GeneID 5740743),DRSC15164,0.39,0.44,,
gom (GeneID 43934),DRSC04690,0.14,0.39,,
spoon (GeneID 31459),DRSC18299,0.34,0.46,,
RasGAP1 (GeneID 39158),DRSC11172,0.76,0.57,,
CG5916 (GeneID 41960),DRSC15917,0.31,0.32,,
Ir75a (GeneID 39982),DRSC10188,0.2,0.17,,
LysB (GeneID 38125),DRSC08673,0.2,0.34,,
Duba (GeneID 39302),DRSC10582,0.49,0.47,,
CG34301 (GeneID 5740866),DRSC12704,-0.38,0.18,,
Sf3b3 (GeneID 38093),DRSC08370,0.33,-0.02,,
Jon99Fii (GeneID 43621),DRSC15430,0.21,0.43,,
CG43316 (GeneID 36326),DRSC06297,0.28,0.32,,
CG13039 (GeneID 39805),DRSC09920,0.39,0.39,,
CG43689 (GeneID 31353),DRSC18046,0.26,-0.34,,
CG43689 (GeneID 31353),DRSC18383,-0.55,-1.35,,
CG43689 (GeneID 31353),DRSC22467,0.89,0.21,,
ro (GeneID 43234),DRSC17046,0.08,0.14,,
plu (GeneID 44848),DRSC07665,-0.91,-0.06,,
Sry-beta (GeneID 43570),DRSC16868,0.05,0.25,,
CG8010 (GeneID 32921),DRSC20072,0.08,-0.02,,
CG42724 (GeneID 40785),DRSC12567,0.19,-0.46,,
CG42724 (GeneID 40785),DRSC22275,-1.06,-4.11,,
Cpr65Av (GeneID 318014),DRSC09727,0.37,0.26,,
Glg1 (GeneID 40382),DRSC11815,0.26,0.25,,
Glg1 (GeneID 40382),DRSC11816,0.32,0.14,,
Glg1 (GeneID 40382),DRSC11817,0.53,0.51,,
Anp (GeneID 43595),DRSC14112,0.33,0.39,,
rgr (GeneID 35843),DRSC06487,0.49,0.33,,
rgr (GeneID 35843),DRSC07229,0.36,0.39,,
Abcd1 (GeneID 43772),DRSC17157,-0.1,0.34,,
CG15602 (GeneID 32533),DRSC19671,0.58,0.39,,
Gmppa (GeneID 36730),DRSC07108,0.12,-0.32,,
CG43057 (GeneID 12798305),DRSC01015,0.56,0.14,,
nanos (GeneID 42297),DRSC17018,0.31,0.34,,
TBPH (GeneID 37781),DRSC04660,-0.04,0.15,,
CG8745 (GeneID 39530),DRSC11033,0.41,0.36,,
CG8745 (GeneID 39530),DRSC11034,0.49,-0.18,,
CG8745 (GeneID 39530),DRSC22741,0.69,-0.1,,

Targets listed so far whose gene name begins with A or a:
target gene,dsRNA,"z-score, replicate 1","z-score, replicate 2","z-score, replicate 3","z-score, replicate 4"
Anp (GeneID 43595),DRSC14112,0.33,0.39,,
Abcd1 (GeneID 43772),DRSC17157,-0.1,0.34,,
